# Measured values: the supplement of paper PMC8728848
# This is one part of the list.
# Columns and labels:
# Test in all cases: glycan array binding signal (z-score within array); higher = stronger binding
# Settings in all cases: glycan notation: IUPAC condensed, linker removed
# Fuc(a1-2)Gal = molecular target: Fuc(a1-2)Gal
# In short: (§1)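 From the Consortium for Functional Glycomics database, 3228 arrays were curated, keeping only those whose protein sequence was available. Binding is given as a within-array Z-score averaged across arrays sharing a protein sequence and across linkers. Negative Z-scores can be read as non-binding.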
# Fuc(a1-2)Gal(b1-3)GalNAc = molecular target: Fuc(a1-2)Gal(b1-3)GalNAc
# In short: as §1
# [1] = molecular target: Fuc(a1-2)Gal(b1-3)GalNAc(a1-3)[Fuc(a1-2)]Gal(b1-4)Glc
# In short: as §1
# [2] = molecular target: Fuc(a1-2)Gal(b1-3)GalNAc(a1-3)[Fuc(a1-2)]Gal(b1-4)GlcNAc
# In short: as §1
# [3] = molecular target: Fuc(a1-2)Gal(b1-3)GalNAc(b1-3)Gal
# In short: as §1
# [4] = molecular target: Fuc(a1-2)Gal(b1-3)GalNAc(b1-3)Gal(a1-4)Gal(b1-4)Glc
# In short: as §1
# [5] = molecular target: Fuc(a1-2)Gal(b1-3)GalNAc(b1-4)[Neu5Ac(a2-3)]Gal(b1-4)Glc
# In short: as §1
# Fuc(a1-2)Gal(b1-3)GlcNAc = molecular target: Fuc(a1-2)Gal(b1-3)GlcNAc
# In short: as §1
# [6] = molecular target: Fuc(a1-2)Gal(b1-3)GlcNAc(b1-2)Man(a1-3)[Fuc(a1-2)Gal(b1-3)GlcNAc(b1-2)Man(a1-6)]Man(b1-4)GlcNAc(b1-4)GlcNAc
# In short: as §1
# [7] = molecular target: Fuc(a1-2)Gal(b1-3)GlcNAc(b1-2)Man(a1-3)[Fuc(a1-2)Gal(b1-3)GlcNAc(b1-2)Man(a1-6)]Man(b1-4)GlcNAc(b1-4)[Fuc(a1-6)]GlcNAc
# In short: as §1
# [8] = molecular target: Fuc(a1-2)Gal(b1-3)GlcNAc(b1-3)Gal(b1-4)Glc
# In short: as §1
# [9] = molecular target: Fuc(a1-2)Gal(b1-3)GlcNAc(b1-3)GalNAc
# In short: as §1
# [10] = molecular target: Fuc(a1-2)Gal(b1-3)GlcNAc(b1-3)[Fuc(a1-2)Gal(b1-3)GlcNAc(b1-6)]GalNAc
# In short: as §1
# [11] = molecular target: Fuc(a1-2)Gal(b1-3)GlcNAc(b1-3)[Gal(b1-4)GlcNAc(b1-6)]Gal(b1-4)Glc
# In short: as §1
# [12] = molecular target: Fuc(a1-2)Gal(b1-3)GlcNAc(b1-3)[Neu5Ac(a2-6)Gal(b1-4)GlcNAc(b1-6)]Gal(b1-4)Glc
# In short: as §1
# [13] = molecular target: Fuc(a1-2)Gal(b1-3)GlcNAc6S
# In short: as §1
# [14] = molecular target: Fuc(a1-2)Gal(b1-3)[Fuc(a1-4)]GlcNAc
# In short: as §1
# [15] = molecular target: Fuc(a1-2)Gal(b1-3)[Fuc(a1-4)]GlcNAc(b1-2)Man(a1-3)[Fuc(a1-2)Gal(b1-3)[Fuc(a1-4)]GlcNAc(b1-2)Man(a1-3)]Man(b1-4)GlcNAc(b1-4)GlcNAc
# In short: as §1
# [16] = molecular target: Fuc(a1-2)Gal(b1-3)[Fuc(a1-4)]GlcNAc(b1-2)Man(a1-3)[Fuc(a1-2)Gal(b1-3)[Fuc(a1-4)]GlcNAc(b1-2)Man(a1-6)]Man(b1-4)GlcNAc(b1-4)[Fuc(a1-6)]GlcNAc(b1-4)[Fuc(a1-6)]GlcNAc
# In short: as §1
# [17] = molecular target: Fuc(a1-2)Gal(b1-3)[Fuc(a1-4)]GlcNAc(b1-3)[Fuc(a1-3)[Gal(b1-4)]GlcNAc(b1-6)]Gal(b1-4)Glc
# In short: as §1
# [18] = molecular target: Fuc(a1-2)Gal(b1-3)[Fuc(a1-4)]GlcNAc(b1-3)[Gal(b1-4)GlcNAc(b1-6)]Gal(b1-4)Glc
# In short: as §1
# [19] = molecular target: Fuc(a1-2)Gal(b1-4)Fuc(a1-3)]GlcNAc(b1-2)Man(a1-3)[Fuc(a1-2)Gal(b1-4)[Fuc(a1-3)]GlcNAc(b1-2)Man(a1-6)]Man(b1-4)GlcNAc(b1-4)GlcNAc
# In short: as §1
# Fuc(a1-2)Gal(b1-4)Glc = molecular target: Fuc(a1-2)Gal(b1-4)Glc
# In short: as §1
# Fuc(a1-2)Gal(b1-4)Glc6S = molecular target: Fuc(a1-2)Gal(b1-4)Glc6S
# In short: as §1
# Fuc(a1-2)Gal(b1-4)GlcNAc = molecular target: Fuc(a1-2)Gal(b1-4)GlcNAc
# In short: as §1
# [20] = molecular target: Fuc(a1-2)Gal(b1-4)GlcNAc(b1-2)Man
# In short: as §1
# [21] = molecular target: Fuc(a1-2)Gal(b1-4)GlcNAc(b1-2)Man(a1-3)[Fuc(a1-2)Gal(b1-4)GlcNAc(b1-2)Man(a1-6)]Man(b1-4)GlcNAc(b1-4)GlcNAc
# In short: as §1
# [22] = molecular target: Fuc(a1-2)Gal(b1-4)GlcNAc(b1-2)Man(a1-3)[Fuc(a1-2)Gal(b1-4)GlcNAc(b1-2)Man(a1-6)]Man(b1-4)GlcNAc(b1-4)[Fuc(a1-6)]GlcNAc
# In short: as §1
# [23] = molecular target: Fuc(a1-2)Gal(b1-4)GlcNAc(b1-2)[Fuc(a1-2)Gal(b1-4)GlcNAc(b1-4)]Man(a1-3)[Fuc(a1-2)Gal(b1-4)GlcNAc(b1-2)Man(a1-6)]Man(b1-4)GlcNAc(b1-4)GlcNAc
# In short: as §1
# [24] = molecular target: Fuc(a1-2)Gal(b1-4)GlcNAc(b1-3)Gal(b1-4)GlcNAc
# In short: as §1
binder,measurement,setting,value
"HA-61200 (Pseudomonas aeruginosa), Q02SP8_PSEAB (protein) MNKCYALVWNVSQGCWNVVSEGSRRRGKPAGAKAAIASVLALLGATALAPAYALPSGGTVVGGSANGEIHLSGGNSLSVNQKVDKLIANWDSFSVAAGERVIFNQPSSSSIALNRVIGTKASDIQGRIDANGQVFLVNPNGVLFGRGAQVNVGGLVASTLDITDAEFNGNSSRYRFTGPSTNGVLNHGGAITAAEGGSIALLGAQVDNRGTVLAQMGGVGLGAGSDLTLNFDGNKLLDIRVDAGVANALASNGGLLKADGGRVLMAARTANALLNTVVNSQGAIEARSLRGKNGRIVLDG",glycan array binding signal (z-score),Fuc(a1-2)Gal,0.052
same,glycan array binding signal (z-score),Fuc(a1-2)Gal(b1-3)GalNAc,-0.293
same,glycan array binding signal (z-score),[1],-0.947
same,glycan array binding signal (z-score),[2],-0.993
same,glycan array binding signal (z-score),[3],-0.747
same,glycan array binding signal (z-score),[4],-0.486
same,glycan array binding signal (z-score),[5],-0.288
same,glycan array binding signal (z-score),Fuc(a1-2)Gal(b1-3)GlcNAc,-1.2
same,glycan array binding signal (z-score),[6],4.52
same,glycan array binding signal (z-score),[7],-0.53
same,glycan array binding signal (z-score),[8],-0.622
same,glycan array binding signal (z-score),[9],-0.475
same,glycan array binding signal (z-score),[10],0.665
same,glycan array binding signal (z-score),[11],0.014
same,glycan array binding signal (z-score),[12],-0.553
same,glycan array binding signal (z-score),[13],-0.547
same,glycan array binding signal (z-score),[14],-0.114
same,glycan array binding signal (z-score),[15],1.5
same,glycan array binding signal (z-score),[16],-0.076
same,glycan array binding signal (z-score),[17],-0.35
same,glycan array binding signal (z-score),[18],0.396
same,glycan array binding signal (z-score),[19],2.27
same,glycan array binding signal (z-score),Fuc(a1-2)Gal(b1-4)Glc,1.09
same,glycan array binding signal (z-score),Fuc(a1-2)Gal(b1-4)Glc6S,0.498
same,glycan array binding signal (z-score),Fuc(a1-2)Gal(b1-4)GlcNAc,-0.275
same,glycan array binding signal (z-score),[20],0.447
same,glycan array binding signal (z-score),[21],-0.51
same,glycan array binding signal (z-score),[22],0.288
same,glycan array binding signal (z-score),[23],0.575
same,glycan array binding signal (z-score),[24],0.177

# Reformatted bar-delimited: entries from further up
binder | measurement | setting | value
HA-61200 (Pseudomonas aeruginosa), Q02SP8_PSEAB (protein) MNKCYALVWNVSQGCWNVVSEGSRRRGKPAGAKAAIASVLALLGATALAPAYALPSGGTVVGGSANGEIHLSGGNSLSVNQKVDKLIANWDSFSVAAGERVIFNQPSSSSIALNRVIGTKASDIQGRIDANGQVFLVNPNGVLFGRGAQVNVGGLVASTLDITDAEFNGNSSRYRFTGPSTNGVLNHGGAITAAEGGSIALLGAQVDNRGTVLAQMGGVGLGAGSDLTLNFDGNKLLDIRVDAGVANALASNGGLLKADGGRVLMAARTANALLNTVVNSQGAIEARSLRGKNGRIVLDG | glycan array binding signal (z-score) | Fuc(a1-2)Gal | 0.052
same | glycan array binding signal (z-score) | Fuc(a1-2)Gal(b1-4)GlcNAc | -0.275
